# Experimental data reported in the supplement of paper PMC8728848.
# This is one part of the list.
# What was measured:
# Experiment in all cases: glycan array binding signal (z-score within array); higher = stronger binding
# Conditions in all cases: glycan notation: IUPAC condensed, linker removed
# [1] = biological target: Gal(b1-3)GlcNAc(a1-6)Gal(b1-4)GlcNAc
# How it was run: (§1)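 From the Consortium for Functional Glycomics database, 3228 arrays were curated, keeping only those whose protein sequence was available. Binding is given as a within-array Z-score averaged across arrays sharing a protein sequence and across linkers. Negative Z-scores can be read as non-binding.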
# [2] = biological target: Gal(b1-3)GlcNAc(b1-2)Man(a1-3)[Gal(b1-3)GlcNAc(b1-2)Man(a1-6)]Man(b1-4)GlcNAc(b1-4)GlcNAc
# How it was run: as §1
# [3] = biological target: Gal(b1-3)GlcNAc(b1-2)Man(a1-3)[Gal(b1-3)GlcNAc(b1-2)Man(a1-6)]Man(b1-4)GlcNAc(b1-4)[Fuc(a1-6)]GlcNAc
# How it was run: as §1
# [4] = biological target: Gal(b1-3)GlcNAc(b1-2)[Gal(b1-3)GlcNAc(b1-6)]Man(a1-6)[Gal(b1-3)GlcNAc(b1-2)Man(a1-3)]Man(b1-4)GlcNAc(b1-4)GlcNAc
# How it was run: as §1
# [5] = biological target: Gal(b1-3)GlcNAc(b1-3)Gal(b1-3)GlcNAc
# How it was run: as §1
# [6] = biological target: Gal(b1-3)GlcNAc(b1-3)Gal(b1-4)Glc
# How it was run: as §1
# [7] = biological target: Gal(b1-3)GlcNAc(b1-3)Gal(b1-4)GlcNAc
# How it was run: as §1
# [8] = biological target: Gal(b1-3)GlcNAc(b1-3)Gal(b1-4)GlcNAc(b1-6)[Gal(b1-3)GlcNAc(b1-3)]Gal(b1-4)Glc
# How it was run: as §1
# [9] = biological target: Gal(b1-3)GlcNAc(b1-3)Gal(b1-4)[Fuc(a1-3)]GlcNAc(b1-6)[Gal(b1-3)GlcNAc(b1-3)]Gal(b1-4)Glc
# How it was run: as §1
# [10] = biological target: Gal(b1-3)GlcNAc(b1-3)GalNAc
# How it was run: as §1
# [11] = biological target: Gal(b1-3)GlcNAc(b1-6)Gal(b1-4)GlcNAc
# How it was run: as §1
# [12] = biological target: Gal(b1-3)[Fuc(a1-4)]GlcNAc
# How it was run: as §1
# [13] = biological target: Gal(b1-3)[Fuc(a1-4)]GlcNAc(b1-2)Man(a1-3)[Gal(b1-3)[Fuc(a1-4)]GlcNAc(b1-2)Man(a1-6)]Man(b1-4)GlcNAc(b1-4)GlcNAc
# How it was run: as §1
# [14] = biological target: Gal(b1-3)[Fuc(a1-4)]GlcNAc(b1-2)Man(a1-3)[Gal(b1-3)[Fuc(a1-4)]GlcNAc(b1-2)Man(a1-6)]Man(b1-4)GlcNAc(b1-4)[Fuc(a1-6)]GlcNAc
# How it was run: as §1
# [15] = biological target: Gal(b1-3)[Fuc(a1-4)]GlcNAc(b1-3)Gal(b1-3)[Fuc(a1-4)]GlcNAc
# How it was run: as §1
# [16] = biological target: Gal(b1-3)[Fuc(a1-4)]GlcNAc(b1-3)Gal(b1-4)GlcNAc
# How it was run: as §1
# [17] = biological target: Gal(b1-3)[Fuc(a1-4)]GlcNAc(b1-3)Gal(b1-4)[Fuc(a1-3)]GlcNAc
# How it was run: as §1
# [18] = biological target: Gal(b1-3)[GlcNAc(b1-6)]GalNAc
# How it was run: as §1
# [19] = biological target: Gal(b1-3)[Neu5Ac(a2-6)]GalNAc
# How it was run: as §1
# [20] = biological target: Gal(b1-3)[Neu5Ac(a2-6)]GlcNAc(b1-6)Gal(b1-4)Glc
# How it was run: as §1
# [21] = biological target: Gal(b1-3)[Neu5Ac(b2-6)]GalNAc
# How it was run: as §1
# Gal(b1-4)Gal = biological target: Gal(b1-4)Gal
# How it was run: as §1
binder,measurement,setting,value
"Layilin (Mus musculus), Q8C351 (protein) MQPGAALQAMLLAVLLAKPRDSKGRLLSASDLDPRGGQLVCRGGTRRPCYKVIYFHDAFQRLNFEEAKETCMEDGGQLVSIETEDEQRLIEKFIENLLASDGDFWIGLKRLEEKQSNNTACQDLYAWTDGSTSQFRNWYVDEPSCGSEVCVVMYHQPSAPPGIGGSYMFQWNDDRCNMKNNFICKYHDDKPSTTPSIWPGGEATEPATPLLPEETQKEDTKETFKERREAALNLAYILIPSIPLFLLLVVTSAVCWVWICRRKREQTDPSTKEQHTIWPTPRQENSPNLDVYNVIRKQSEADLAEPRPDLKNISFRVCSGEAMPDDMSCDYENIAVNPSESGFVTLASMESGFVTNDIYEFSPDRMGRSKESGWVENEIYY",glycan array binding signal (z-score),[1],-1.02
same,glycan array binding signal (z-score),[2],0.423
same,glycan array binding signal (z-score),[3],2.69
same,glycan array binding signal (z-score),[4],-0.793
same,glycan array binding signal (z-score),[5],-1.2
same,glycan array binding signal (z-score),[6],-0.339
same,glycan array binding signal (z-score),[7],-0.708
same,glycan array binding signal (z-score),[8],-0.423
same,glycan array binding signal (z-score),[9],-0.086
same,glycan array binding signal (z-score),[10],0.538
same,glycan array binding signal (z-score),[11],-0.744
same,glycan array binding signal (z-score),[12],0.542
same,glycan array binding signal (z-score),[13],-0.909
same,glycan array binding signal (z-score),[14],7.71
same,glycan array binding signal (z-score),[15],-0.784
same,glycan array binding signal (z-score),[16],0.165
same,glycan array binding signal (z-score),[17],0.595
same,glycan array binding signal (z-score),[18],-0.792
same,glycan array binding signal (z-score),[19],-0.348
same,glycan array binding signal (z-score),[20],1.16
same,glycan array binding signal (z-score),[21],0.228
same,glycan array binding signal (z-score),Gal(b1-4)Gal,-0.668

# At a glance, part of the list above.
binder,measurement,setting,value
"Layilin (Mus musculus), Q8C351 (protein) MQPGAALQAMLLAVLLAKPRDSKGRLLSASDLDPRGGQLVCRGGTRRPCYKVIYFHDAFQRLNFEEAKETCMEDGGQLVSIETEDEQRLIEKFIENLLASDGDFWIGLKRLEEKQSNNTACQDLYAWTDGSTSQFRNWYVDEPSCGSEVCVVMYHQPSAPPGIGGSYMFQWNDDRCNMKNNFICKYHDDKPSTTPSIWPGGEATEPATPLLPEETQKEDTKETFKERREAALNLAYILIPSIPLFLLLVVTSAVCWVWICRRKREQTDPSTKEQHTIWPTPRQENSPNLDVYNVIRKQSEADLAEPRPDLKNISFRVCSGEAMPDDMSCDYENIAVNPSESGFVTLASMESGFVTNDIYEFSPDRMGRSKESGWVENEIYY",glycan array binding signal (z-score),[3],2.69
same,glycan array binding signal (z-score),[4],-0.793
